Results on 1 substance are retold here after article PMC4359319.

Protein sequences, listed by entry. Tags and fused reporters are not part of them. Residues count along the entry.
UniProt P28799, residues 18-593: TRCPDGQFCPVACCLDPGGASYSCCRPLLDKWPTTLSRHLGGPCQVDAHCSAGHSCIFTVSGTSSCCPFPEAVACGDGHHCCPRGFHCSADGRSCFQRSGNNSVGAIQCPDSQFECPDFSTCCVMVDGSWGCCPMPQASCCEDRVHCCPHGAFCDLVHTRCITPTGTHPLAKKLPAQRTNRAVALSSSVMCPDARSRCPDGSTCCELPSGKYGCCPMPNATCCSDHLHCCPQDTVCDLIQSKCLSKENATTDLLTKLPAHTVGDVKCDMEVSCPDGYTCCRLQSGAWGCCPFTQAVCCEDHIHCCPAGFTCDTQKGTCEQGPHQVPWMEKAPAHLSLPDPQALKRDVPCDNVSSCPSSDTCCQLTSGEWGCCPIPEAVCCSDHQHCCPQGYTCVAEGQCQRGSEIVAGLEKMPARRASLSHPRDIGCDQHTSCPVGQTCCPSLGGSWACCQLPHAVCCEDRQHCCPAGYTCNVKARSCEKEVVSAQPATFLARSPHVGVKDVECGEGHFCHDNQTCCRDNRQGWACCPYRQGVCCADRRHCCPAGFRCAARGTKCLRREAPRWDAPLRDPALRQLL

For this assay, the target named is T1, N-terminal kinase like protein (NTKL) (human (expressed in the human HCC cell line QGY-7703; species of the cDNA not stated)) (UniProt Q96KG9).
T1 sequence: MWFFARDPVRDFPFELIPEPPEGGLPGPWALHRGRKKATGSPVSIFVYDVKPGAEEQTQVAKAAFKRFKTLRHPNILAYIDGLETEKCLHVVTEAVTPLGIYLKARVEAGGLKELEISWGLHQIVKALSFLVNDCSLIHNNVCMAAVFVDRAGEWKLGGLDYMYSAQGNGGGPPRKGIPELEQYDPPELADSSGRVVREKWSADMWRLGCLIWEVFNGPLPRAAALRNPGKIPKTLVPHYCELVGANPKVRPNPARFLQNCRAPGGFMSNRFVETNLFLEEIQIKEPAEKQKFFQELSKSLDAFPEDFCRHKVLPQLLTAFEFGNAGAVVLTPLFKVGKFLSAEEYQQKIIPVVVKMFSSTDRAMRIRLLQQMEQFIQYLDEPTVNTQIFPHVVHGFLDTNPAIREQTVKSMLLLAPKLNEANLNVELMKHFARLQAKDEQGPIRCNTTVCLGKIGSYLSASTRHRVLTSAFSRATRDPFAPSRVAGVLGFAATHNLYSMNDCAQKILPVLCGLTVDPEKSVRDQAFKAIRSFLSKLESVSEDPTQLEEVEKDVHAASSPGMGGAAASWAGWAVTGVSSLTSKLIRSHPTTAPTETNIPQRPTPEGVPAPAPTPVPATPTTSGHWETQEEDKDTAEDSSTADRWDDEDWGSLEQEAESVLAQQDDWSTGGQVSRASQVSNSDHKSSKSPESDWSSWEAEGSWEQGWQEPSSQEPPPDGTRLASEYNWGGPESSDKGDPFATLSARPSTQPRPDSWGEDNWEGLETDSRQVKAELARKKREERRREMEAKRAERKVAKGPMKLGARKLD
In words: affinity purification with mass spectrometry; NTKL-7703 cell lysate precipitated with NTKL antibody (rabbit IgG as control) and protein G agarose, 4°C; SDS gel, silver staining; bands seen only in the experimental group cut out and analysed by mass spectrometry.

These are yes or no findings as the source states them, for the method shown. Binding seen in cells or lysates may run through a third protein. A yes stands for co-enrichment or nearness to the bait. Other partners may have been found.

Turning to granulin (from UniProt P28799 18-593), the binding result was “binds”.
